# In PubChem BioAssay AID662 (National Center for Advancing Translational Sciences (NCATS), 2007):
# Some of the results follow. Shown are side measurements of this screen, not its main read-out; they come without a call. Most of these compounds were active or inconclusive in the main read-out, so they are no random draw. The note in brackets gives the kind of curve behind each potency; many fits are weak.
# Test: Cell signaling CRE-BLA (Fsk stim)
# Settings: CHO CRE-bla reporter (cAMP response element driving beta-lactamase), forskolin EC10, beta-lactamase ratio; measured here: 460 nm blue channel
# Procedure, shortened: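 The 460nm/530nm emission ratio after CCF4 loading defined %Activity, from which AC50 values were obtained. CRE-bla CHO cells received compound dilution series together with an EC10 level of NKH 477 for 3 hours at 37 degrees Celsius.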
row,SMILES,AC50
1,CCOC(=O)Cn1c(=O)oc2cc(S(=O)(=O)Nc3cccc(C)c3)ccc21,"7.94 µM [rising, partial curve]"
2,CCCCCn1c(Sc2nc3ccccc3s2)nc2c1c(=O)[nH]c(=O)n2C,"12.6 µM [rising, partial curve]"
3,Cc1cc2c(c(=O)n1Cc1cccnc1)C(Cc1ccccc1)C(C#N)=C(N)O2 (configuration not stated),"31.6 µM [falling, single point]"
4,COc1ccc(/C(O)=C2/C(=O)C(=O)N(CCN3CCOCC3)C2c2ccc(C)cc2)cc1 (configuration not stated),"0.00398 µM [falling, full curve, poor fit]"
5,COC(=O)c1ccccc1NC(=O)CN1CCC(C(=O)c2ccc3c(c2)OCCO3)CC1,"25.1 µM [falling, single point]"
6,COc1ccc(N(CC(=O)NC2CCCC2)C(=O)Cn2nnc(-c3ccc(F)cc3)n2)cc1OC,"25.1 µM [falling, single point]"
7,Cn1c(=O)c(NCCO)c2c3c(cccc31)C(=O)c1ccccc1-2,"10 µM [rising, partial curve]"
8,CC(C)C(NC(=O)C1CCCCC1)C(=O)Nc1ccc2c(c1)OCCO2 (configuration not stated),"15.8 µM [falling, partial curve, poor fit]"
9,C=CCn1c(N)c(C(=O)OCCC)c2nc3ccccc3nc21,"10 µM [rising, partial curve]"
10,O=S(=O)(NCCCCCNS(=O)(=O)c1ccc(F)cc1)c1ccc(F)cc1,"5.01 µM [falling, partial curve]"
11,CCn1c(N)c(C(=O)NCc2ccco2)sc1=S,"0.00398 µM [falling, full curve, poor fit]"
12,N#CC1=C(N)Oc2c(ccc3cccnc23)C1c1cccnc1 (configuration not stated),"2 µM [rising, single point]"
13,O=C(CSc1nccc(=O)[nH]1)N1CCCc2ccccc21,"0.794 µM [rising, full curve, poor fit]"
14,O=P(c1cccs1)(c1cccs1)c1cccs1,"0.631 µM [falling, full curve]"
15,O=C(O)c1cc2cc(Cl)cc(Cl)c2oc1=O,"5.01 µM [falling, full curve]"
16,CN(c1ccccc1)c1nc2ccsc2c(=O)s1,"0.1 µM [falling, full curve, poor fit]"
17,COc1ccccc1NC(=O)c1oc2ccccc2c1NC(=O)c1cc(OC)c(OC)c(OC)c1,"0.794 µM [rising, full curve]"
18,Cn1cc(C(=O)NCCc2ccccc2)c(=O)c2cc(S(=O)(=O)N3CCOCC3)ccc21,"25.1 µM [rising, single point]"
19,COc1ccc(Oc2c(C)oc3cc(OC(=O)N4CCOCC4)ccc3c2=O)cc1,"3.98 µM [falling, single point]"
20,O=C(NCc1ccco1)c1cc2nc(-c3ccc4c(c3)OCO4)cc(C(F)(F)F)n2n1,"15.8 µM [rising, partial curve]"
21,CCc1ccc2c(-c3cccc(Cl)c3)nc(=O)n(CC)c2n1,"0.794 µM [rising, full curve]"

# In the list so far, 2 have a thiophene ring, fused or not.
row,SMILES,AC50
14,O=P(c1cccs1)(c1cccs1)c1cccs1,"0.631 µM [falling, full curve]"
16,CN(c1ccccc1)c1nc2ccsc2c(=O)s1,"0.1 µM [falling, full curve, poor fit]"

# Among those listed so far, 2 have a Cl atom:
row,SMILES,AC50
15,O=C(O)c1cc2cc(Cl)cc(Cl)c2oc1=O,"5.01 µM [falling, full curve]"
21,CCc1ccc2c(-c3cccc(Cl)c3)nc(=O)n(CC)c2n1,"0.794 µM [rising, full curve]"

# The list goes on.

row,SMILES,AC50
1,O=C(CNS(=O)(=O)c1ccc(Br)s1)NCC1COc2ccccc2O1 (configuration not stated),"0.316 µM [falling, full curve]"
2,CCc1ccc2[nH]c(=O)c(CN(Cc3ccc4c(c3)OCO4)C(=O)c3ccco3)cc2c1,"10 µM [rising, partial curve]"
3,C=CCNc1nc(Nc2ccc(OC)cc2OC)nc(OCC)n1,"1 µM [rising, full curve]"
4,Cc1nc(SCc2cccc(F)c2)[nH]c(=O)c1C#N,"1.26 µM [falling, partial curve]"
5,CCSc1nc2c(c(=O)[nH]c(=O)n2C)n1CC(O)COc1ccccc1C (configuration not stated),"10 µM [rising, partial curve]"
6,Cc1cc(C)c(NC(=O)C[C@H](CC(=O)O)c2cccc3ccccc23)c(C(=O)N2CCC3(CCCC3)CC2)c1,"12.6 µM [falling, single point]"
7,Cc1cc(C(=O)CN2C(=O)NC(C)(c3cccc(Br)c3)C2=O)c(C)n1Cc1ccco1 (configuration not stated),"10 µM [falling, partial curve]"
8,CN(C)c1ncc2nc(-c3cccs3)c(=O)n(-c3ccccc3)c2n1,"15.8 µM [rising, partial curve]"
9,COC(=O)c1ccc(CSc2nnc(NCc3ccccc3)s2)o1,"3.98 µM [falling, partial curve]"
10,O=C(c1n[nH]c(=O)c2ccccc12)N1CCN(C2c3ccccc3-c3ccccc32)CC1,"0.00794 µM [falling, full curve, poor fit]"
11,COc1ccc(-n2c(Cc3cccn3C)nnc2SCC(=O)Nc2ccc(C)cc2C)cc1,"5.01 µM [falling, partial curve]"
12,CN(c1ccccc1)c1nc(N2CCCC2)nc(-n2ccnc2)n1,"15.8 µM [rising, partial curve]"
13,Cn1nc(-c2ccc(N3CCOCC3)c(NS(=O)(=O)c3ccccc3)c2)c2ccccc2c1=O,"1.58 µM [rising, full curve]"
14,O=C(Nc1ncnc2c1ncn2C1OC(COC(=O)c2ccccc2)C(F)C1O)c1ccccc1 (configuration not stated),"0.00794 µM [rising, full curve, poor fit]"
15,CC(NC(=O)c1cccc(N2CCCC2=O)c1)c1ccc2c(c1)OCCO2 (configuration not stated),"25.1 µM [falling, single point]"
16,CC(C)C(=O)N(c1ccc2oc(=O)sc2c1)S(=O)(=O)c1cccs1,"3.16 µM [rising, single point]"
17,O=C(NC1CCCc2ccccc21)C1CCN(S(=O)(=O)c2cnc[nH]2)CC1 (configuration not stated),"0.00316 µM [falling, full curve, poor fit]"
18,O=C(c1ccc(C(=O)N2CCOCC2)nc1)N1CCOCC1,"12.6 µM [rising, single point]"
19,CCn1nnc(NC(=O)CSc2ccc(Cl)cc2)n1,"0.794 µM [rising, full curve, poor fit]"
20,COc1ccc(-c2cc(C(=O)N(C)Cc3ccccc3)no2)cc1OC,"10 µM [rising, partial curve]"
21,Cc1ccc2nc(N3CCN(Cc4nnnn4Cc4ccccc4)CC3)c(C#N)cc2c1,"12.6 µM [rising, partial curve]"
